What all share (type): physicochemical
Series [1] is described as follows: Separation of Y/Tb mixture by repeated precipitation using L2 (Example 14). As for the experimental part:
The experiment was conducted according to Example 11) with 9 identical reaction mixtures containing Y, Tb, and compound L2. The experimental procedure was identical to that of Example 11). The resulting absolute concentrations of both metals in the supernatants and precipitates, as well as calculated values of separation factor Y/Tb according to the formula from Example 11), are summarized in Table 8. The average separation factor value was 3.34.

Series [2] in a line: Separation of industrially relevant binary mixtures by precipitation using L1, L2 and L3 (Example 10). Particulars: supernatant. The protocol: Analogous to Example 7), three sets of reaction mixtures with two metals and either compound L1, L2, or L3 were prepared in a 96-well plate with the following differences: each well was equipped with one PTFE-coated magnetic stir bar, the well plate was sealed with a silicon cover, and the reaction mixtures were stirred on a magnetic stirrer for 2 days at room temperature. Analogous to Example 7), the well plate was then centrifuged and concentrations of the metals were determined using ICP-OES. […] It is evident from the results that certain degrees of enrichment are achieved for very different combinations of metals, and that ligands L1, L2, and L3 have different selectivities for given combinations of metals.

The nature of series [3]: Separation of Tb/Dy mixture by repeated precipitation using L5 and α-HIBA (Example 20). The protocol: Analogous to Example 19, three reaction mixtures were prepared with the following changes: the rare-earth elements were Tb and Dy, and 0.5 molar equivalents (5 mM reaction concentration) of α-HIBA were used. Otherwise, the experiment was run analogously to Example 19.
The resulting absolute concentrations of both metals in the supernatants and precipitates, as well as calculated values of the separation factor Dy/Tb according to the formula from Example 11), are summarized in Table 14. […] The average separation factor was 2.32.

Series [4] is described as follows: Use of additives to improve separation of Nd/Dy mixture by precipitation with L5 (Example 18). Particulars: no additive (0 mM); 11 mM L5. As for the experimental part:
Stock solutions were pipetted into plastic 1×1 cm cuvettes to prepare reaction mixtures with concentrations as follows: • 1. […] 5 mM NdCl3 • 3. 5 mM DyCl3 • 4. 500 mM MOPS pH=7 • 5. the additive of interest, in a variable concentration; if possible, stock solutions were prepared from Na^+ salt forms of the compound; if not, the stock solutions were titrated by NaOH/HCl to pH=7 prior to addition (see Table 12 for additives and concentrations)
These aqueous reaction mixtures, each prepared to a total volume of 2.0 mL with the addition of water as necessary, were mixed by the use of a PTFE-coated stir bar on a magnetic stirrer. The cuvettes were sealed with transparent tape to prevent evaporation overnight. The reaction mixtures were stirred for 18 hours, at which point 500 μL aliquots of each reaction mixture were transferred into plastic 2 mL Eppendorf tubes and centrifuged. The supernatants were carefully pipetted out and transferred to a new set of tubes. The precipitate was dissolved by addition of 500 μL 1M HCl. The absolute concentration of Nd and Dy in each supernatant and precipitate was determined by ICP-OES.

Series [5] is described as follows: Separation of Nd/Pr mixture by repeated precipitation using L5 and α-HIBA (Example 19). The conditions noted are these: all samples. The protocol:
Stock solutions were pipetted into 4 mL glass vials to prepare reaction mixtures with concentrations as follows: • 1. 11 mM (1.1 eq) chelator L5 • 2. 5 mM (0.5 eq) PrCl3 • 3. 5 mM (0.5 eq) NdCl3 • 4. […] (4 eq) α-HIBA pH=6.5 • 5. 500 mM (50 eq) MOPS pH=7
Three aqueous reaction mixtures, numbered 1-3, were prepared with a total volume of 2 mL each and were treated identically throughout the process. A PTFE-coated magnetic stir bar was added to each and the reaction mixtures were stirred on a magnetic stirrer overnight at room temperature. […] The Nd and Pr content of these precipitate and supernatant samples was determined by ICP-OES. […] A sample of the supernatant was analysed on HPLC-MS and peak areas were compared to those of a standard 10 mM chelate solution; this allowed for calculation of the approximate concentration of chelate remaining in solution, and therefore of the quantity of chelate which had precipitated. The total volume for subsequent reactions was scaled according to this information, such that the concentration of chelate in solution prior to precipitation was 10 mM, even as the net quantity of chelate present was reduced. […] 4 molar equivalents of a-HIBA were added to this vial, followed by 50 molar equivalents 3 M MOPS pH=7, the necessary calculated volume of water, and 25 molar equivalents 2 M NaOH to finish neutralising the reaction mixture. […]

Series [6] in a line: Separation of Eu/Yb mixture by precipitation from water/acetonitrile solutions using L5 (Example 17). The protocol:
3 reaction mixtures, differing in acetonitrile content (group A=10%, group B=20%, group C=50%) were prepared in plastic round-bottom 2 mL Eppendorf tubes, each in duplicate. For group A, the stock solutions were pipetted as follows: 5 μL 100 mM aqueous solution of EuCl3; 5 μL 100 mM aqueous solution YbC13; 10 μL 100 mM aqueous solution of compound L5; 20 μL 3 M MOPS buffer pH=7; 50 μL water; 10 μL acetonitrile.
For group B, the stock solutions were pipetted as follows: 5 μL 100 mM aqueous solution of EuCl3; 5 μL 100 mM aqueous solution YbC13; 10 μL 100 mM aqueous solution of compound L5; 20 μL 3 M MOPS buffer pH=7; 40 μL water; 20 μL acetonitrile. For group C, the stock solutions were pipetted as follows: 5 μL 100 mM aqueous solution of EuCl3; 5 μL 100 mM aqueous solution YbC13; 10 μL 100 mM aqueous solution of compound L5; 20 μL 3 M MOPS buffer pH=7; 10 μL water; 50 μL acetonitrile.
Each tube was equipped with one PTFE-coated magnetic stir bar and sealed, and the mixture was stirred on a magnetic stirrer for 24 hours at room temperature. […] Concentrations of Eu and Yb in the supernatants and in the re-dissolved precipitates were determined by ICP-OES. The resulting absolute concentrations of both metals in the supernatants and precipitates, as well as calculated values of the separation factor Yb/Eu according to the formula from Example 11), are summarized in Table 11.

Series [7] is described as follows: Separation of binary mixture of rare-earth metals by precipitation using L6 (Example 9). The conditions noted are these: supernatant.

The source of these data is US20230356105A1, “TETRAAZADODECANE BASED CHELATING AGENTS FOR SEPARATION OF RARE EARTH ELEMENTS AND METHOD THEREFOR” (Ustav Organicke Chemie a Biochemie AV CR V.V.I., priority 2020, published 2023).

Several values for one entry are separate records, joined by “and”; a condition that tells them apart may be missing. Identical values can stand only once.

Consider `O=C(O)CN1CCNCCN(CC(=O)O)CCN(Cc2cc([N+](=O)[O-])ccc2O)CC1` [L2, 2,2′(4-(2-hydroxy-5-nitrobenzyl)-1,4,7,10-tetraazacyclododecane-1,7-diyl)Diacetic Acid], for which the “average separation factor value Y/Tb” value in series [1] (all samples) came to 3.34. Besides, the “Separation factor Y/Tb” value was 3.69 and 3.52 and 3.30 in series [1] (group A, 1st precipitation); 3.23 and 2.64 in series [1] (group B, 2nd precipitation); 4.79 and 2.73 in series [1] (group C, 3rd precipitation). The M1/M2 in series [2] (M1/M2=Eu/Y) is on record as 0.48; in series [2] (M1/M2=La/Ce), 1.11; in series [2] (M1/M2=Nd/Ce), 0.55; in series [2] (M1/M2=Nd/Dy) it was 0.89; in series [2] (M1/M2=Nd/La) it was 2.05; in series [2] (M1/M2=Nd/Pr) it was 0.98. Moreover, the M1/M2 is 1.07 in series [2] (M1/M2=Nd/Tb); 0.95 in series [2] (M1/M2=Pr/Ce); 1.00 in series [2] (M1/M2=Pr/Dy); 1.06 in series [2] (M1/M2=Pr/La); 0.39 in series [2] (M1/M2=Tb/Dy); 1.24 in series [2] (M1/M2=Tb/Eu). The figures for the M1/M2 in series [2] (M1/M2=Tb/Pr) and in series [2] (M1/M2=Tb/Y) were 0.90 and 0.57, respectively.

`O=C(O)CN1CCN(CC(=O)O)CCN(Cc2cccc3ccccc23)CCN(CC(=O)O)CC1` [L5, 2,2′,2″-(10-(naphthalene-1-ylmethyl)-1,4,7,10-tetraazacyklododekane-1,4,7-triyl)triacetic acid]: the “separation factor Dy/Tb” value is 2.34 and 2.33 and 2.30 in series [3] (A, 1st precipitation); 2.33 and 2.28 and 2.38 in series [3] (B, 2nd precipitation); 2.26 and 2.34 and 2.33 in series [3] (C, 3rd precipitation). In series [3] (all samples), the “average separation factor Dy/Tb” value turned out to be 2.32. For the same molecule, in series [4], the “Separation factor (Dy/Nd)” value was determined as 5.5. Moreover, in series [5], the “average separation factor Nd/Pr” value was 1.69. Further, the “Separation factor Eu/Yb” value in series [6] (group A, 10% acetonitrile) was 74 and 105 and 90; in series [6] (group B, 20% acetonitrile), 74 and 53 and 64.

For `O=C(O)CN1CCN(CC(=O)O)CCN(Cc2ccc(-c3ccccc3)cc2)CCN(CC(=O)O)CC1` [L6, 2,2′,2″-(10-([1,1′-biphenyl]-4-ylmethyl)-1,4,7,10-tetraazacyclododecane-1,4,7-triyl)triacetic acid], the M1/Nd in series [7] (M1=Ce) was determined as 1.07; in series [7] (M1=Dy), 3.41; in series [7] (M1=Er) it was 2.89; in series [7] (M1=Eu), 1.26; in series [7] (M1=Gd), 1.18; in series [7] (M1=Ho), 3.14. Also, the M1/Nd in series [7] (M1=La) amounted to 1.02; in series [7] (M1=Lu), 3.84; in series [7] (M1=Nd), 1.00; in series [7] (M1=Pr) it was 0.94; in series [7] (M1=Sc) it was 4.06; in series [7] (M1=Sm), 1.06. The M1/Nd is listed as 2.40 in series [7] (M1=Tb), 3.90 in series [7] (M1=Tm), 1.09 in series [7] (M1=Y) and 4.53 in series [7] (M1=Yb).
